From patent US10858423B2 (PIERRE FABRE MEDICAMENT, priority 2015, dated 2020)

Test: general procedure: solution-phase peptide synthesis; DEPC/DIEA; HATU/DIEA
Settings: for conjugation yield: conjugation step
[1] = late stage modification step, 210 nm
[2] = late stage modification step, 254 nm

Row | Substance | conjugation yield | step yield (late stage modification step) | also measured
1 | 4-((S)-2-((S)-2-(6-(2,5-dioxo-2,5-dihydro-1H-pyrrol-1-yl)hexanamido)-3-methylbutanamido)-5-ureidopentanamido)benzyl (4-((3R,4S,7S,10S)-4-((S)-sec-butyl)-7,1-diisopropyl-3-(2-((S)-2-((1R,2R)-1-methoxy-2-methyl-3-oxo-3-(((S)-2-phenyl-1-(thiazol-2-yl)ethyl)amino)propyl)pyrrolidin-1-yl)-2-oxoethyl)-5,111-dimethyl-6,9-dioxo-2-oxa-5,8,11-triazatridecan-13-yl)phenyl)(methyl)carbamate 2,2,2-trifluoroacetate | 54% |  | 
2 | ((2R,3R)-3-((S)-1-((3R,4S,5S)-4-((S)-2-((S)-2-((4-(6-(2,5-dioxo-2,5-dihydro-1H-pyrrol-1-yl)-N-methylhexanamido)phenethyl)(methyl)amino)-3-methylbutanamido)-N,3-dimethylbutanamido)-3-methoxy-5-methylheptanoyl)pyrrolidin-2-yl)-3-methoxy-2-methylpropanoyl)-L-phenylalanine 2,2,2-trifluoroacetate | 62% |  | 
3 | ((2R,3R)-3-((S)-1-((3R,4S,5S)-4-((S)-2-((S)-2-((4-((S)-2-((S)-2-(6-(2,5-dioxo-2,5-dihydro-1H-pyrrol-1-yl)hexanamido)-3-methylbutanamido)-5-ureidopentanamido)phenethyl)(methyl)amino)-3-methylbutanamido)-N,3-dimethylbutanamido)-3-methoxy-5-methylheptanoyl)pyrrolidin-2-yl)-3-methoxy-2-methylpropanoyl)-L-phenylalanine 2,2,2-trifluoroacetate | 36% |  | 
4 | ((2R,3R)-3-((S)-1-((3R,4S,5S)-4-((S)-2-((S)-2-((4-((S)-2-((S)-2-(6-(2,5-dioxo-2,5-dihydro-1H-pyrrol-1-yl)hexanamido)-3-methylbutanamido)-N-methyl-5-ureidopentanamido)phenethyl)(methyl)amino)-3-methylbutanamido)-N,3-dimethylbutanamido)-3-methoxy-5-methylheptanoyl)pyrrolidin-2-yl)-3-methoxy-2-methylpropanoyl)-L-phenylalanine 2,2,2-trifluoroacetate | 24% |  | 
5 | ((2R,3R)-3-((S)-1-((3R,4S,5S)-4-((S)-2-((S)-2-((4-aminophenethyl)(methyl)amino)-3-methylbutanamido)-N,3-dimethylbutanamido)-3-methoxy-5-methylheptanoyl)pyrrolidin-2-yl)-3-methoxy-2-methylpropanoyl)-L-phenylalanine 2,2,2-trifluoroacetate |  | 66% | final HPLC purity (late stage modification step, 220 nm): 100%
6 | (S)-2-((2R,3R)-3-((S)-1-((3R,4S,5S)-4-((S)-2-((S)-2-((3-aminobenzyl) (methyl)amino)-3-methylbutanamido)-N,3-dimethylbutanamido)-3-methoxy-5-methylheptanoyl)pyrrolidin-2-yl)-3-methoxy-2-methylpropanamido)-3-phenylpropanoic acid |  | 20% | final HPLC purity [1]: 92.5%
7 | (S)-2-((2R,3R)-3-((S)-1-((3R,4S,5S)-4-((S)-2-((S)-2-((3-aminopropyl)(methyl)amino)-3-methylbutanamido)-N,3-dimethylbutanamido)-3-methoxy-5-methylheptanoyl) pyrrolidin-2-yl)-3-methoxy-2-methylpropanamido)-3-phenylpropanoic acid |  | 21% | final HPLC purity [1]: 96.83%
8 | (S)-2-((2R,3R)-3-((S)-1-((3R,4S,5S)-4-((S)—N,3-dimethyl-2-((S)-3-methyl-2-(methyl(4-(methylamino)phenethyl)amino)butanamido)butanamido)-3-methoxy-5-methyl heptanoyl)pyrrolidin-2-yl)-3-methoxy-2-methylpropanamido)-3-phenylpropanoic acid |  | 20% | final HPLC purity [1]: 90.9%
9 | (S)-2-((2R,3R)-3-((S)-1-((3R,4S,5S)-4-((S)—N,3-dimethyl-2-((S)-3-methyl-2-(methyl(pyridin-4-ylmethyl)amino)butanamido)butanamido)-3-methoxy-5-methylheptanoyl)pyrrolidin-2-yl)-3-methoxy-2-methylpropanamido)-3-phenylpropanoic acid |  | 20% | final HPLC purity [1]: 89.1%
10 | (S)-2-((S)-2-((3-aminopropyl)(methyl)amino)-3-methylbutanamido)-N-((3R,4S,5S)-3-methoxy-1-((S)-2-((1R,2R)-1-methoxy-2-methyl-3-oxo-3-(((S)-2-phenyl-1-(thiazol-2-yl)ethyl)amino)propyl)pyrrolidin-1-yl)-5-methyl-1-oxoheptan-4-yl)-N,3-dimethylbutanamide, bis trifluoroacetic acid |  | 25% | final purity (method not given) [2]: 93.7%
11 | (S)-2-((S)-2-((4-aminobenzyl)(methyl)amino)-3-methylbutanamido)-N-((3R,4S,5S)-3-methoxy-1-((S)-2-((1R,2R)-1-methoxy-2-methyl-3-oxo-3-(((S)-2-phenyl-1-(thiazol-2-yl)ethyl)amino)propyl)pyrrolidin-1-yl)-5-methyl-1-oxoheptan-4-yl)-N,3-dimethylbutanamide, trifluoroacetic Acid |  |  | crude purity (method not given) (late stage modification step, LC/MS/UV, 254 nm): 93.2%
12 | (S)—N-((3R,4S,5S)-3-methoxy-1-((S)-2-((1R,2R)-1-methoxy-2-methyl-3-oxo-3-(((S)-2-phenyl-1-(thiazol-2-yl)ethyl)amino)propyl)pyrrolidin-1-yl)-5-methyl-1-oxoheptan-4-yl)-N,3-dimethyl-2-((S)-3-methyl-2-(methyl(4-(methylamino)phenethyl)amino) butanamido)butanamide |  | 39% | final HPLC purity [2]: 93.68%
13 | Methyl ((2R,3R)-3-((S)-1-((3R,4S,5S)-4-((S)-2-((S)-2-((4-aminophenethyl)(methyl)amino)-3-methylbutanamido)-N,3-dimethylbutanamido)-3-methoxy-5-methylheptanoyl)pyrrolidin-2-yl)-3-methoxy-2-methylpropanoyl)-L-phenylalaninate |  |  | step yield (coupling step): 45%; final HPLC purity (coupling step, 220 nm): 95.3%
14 | N—((S)-1-(((S)-1-((4-((3R,4S,7S,10S)-4-((S)-sec-butyl)-7,10-diisopropyl-3-(2-((S)-2-((1R,2R)-1-methoxy-2-methyl-3-oxo-3-(((S)-2-phenyl-1-(thiazol-2-yl)ethyl)amino)propyl)pyrrolidin-1-yl)-2-oxoethyl)-5,11-dimethyl-6,9-dioxo-2-oxa-5,8,11-triazatridecan-13-yl)phenyl)amino)-1-oxo-5-ureidopentan-2-yl)amino)-3-methyl-1-oxobutan-2-yl)-6-(2,5-dioxo-2,5-dihydro-1H-pyrrol-1-yl)hexanamide 2,2,2-trifluoroacetate | 70% |  | 
15 | methyl ((2R,3R)-3-((S)-1-((3R,4S,5S)-4-((S)-2-((S)-2-((3-(6-(2,5-dioxo-2,5-dihydro-1H-pyrrol-1-yl)hexanamido)benzyl)(methyl)amino)-3-methylbutanamido)-N,3-dimethylbutanamido)-3-methoxy-5-methylheptanoyl)pyrrolidin-2-yl)-3-methoxy-2-methylpropanoyl)-L-phenylalaninate 2,2,2-trifluoroacetate | 50% |  | 
16 | methyl ((2R,3R)-3-((S)-1-((3R,4S,5S)-4-((S)-2-((S)-2-((3-((((4-((S)-2-((S)-2-(6-(2,5-dioxo-2,5-dihydro-1H-pyrrol-1-yl)hexanamido)-3-methylbutanamido)-5-ureidopentanamido)benzyl)oxy)carbonyl)amino)benzyl)(methyl)amino)-3-methylbutanamido)-N,3-dimethylbutanamido)-3-methoxy-5-methylheptanoyl)pyrrolidin-2-yl)-3-methoxy-2-methylpropanoyl)-L-phenylalaninate 2,2,2-trifluoroacetate | 48% |  | 
17 | methyl ((2R,3R)-3-((S)-1-((3R,4S,5S)-4-((S)-2-((S)-2-((4-(6-(2,5-dioxo-2,5-dihydro-1H-pyrrol-1-yl)-N-methylhexanamido)phenethyl)(methyl)amino)-3-methylbutanamido)-N,3-dimethylbutanamido)-3-methoxy-5-methylheptanoyl)pyrrolidin-2-yl)-3-methoxy-2-methylpropanoyl)-L-phenylalaninate 2,2,2-trifluoroacetate | 16% |  | 
18 | methyl ((2R,3R)-3-((S)-1-((3R,4S,5S)-4-((S)-2-((S)-2-((4-((((4-((S)-2-((S)-2-(6-(2,5-dioxo-2,5-dihydro-1H-pyrrol-1-yl)hexanamido)-3-methylbutanamido)-5-ureidopentanamido)benzyl)oxy)carbonyl)(methyl)amino)phenethyl)(methyl) amino)-3-methylbutanamido)-N,3-dimethylbutanamido)-3-methoxy-5-methylheptanoyl)pyrrolidin-2-yl)-3-methoxy-2-methylpropanoyl)-L-phenylalaninate 2,2,2-trifluoroacetate | 70% |  | 
19 | methyl ((2R,3R)-3-((S)-1-((3R,4S,5S)-4-((S)-2-((S)-2-((4-((S)-2-((S)-2-(6-(2,5-dioxo-2,5-dihydro-1H-pyrrol-1-yl)hexanamido)-3-methylbutanamido)-5-ureidopentanamido)phenethyl)(methyl)amino)-3-methylbutanamido)-N,3-dimethylbutanamido)-3-methoxy-5-methylheptanoyl)pyrrolidin-2-yl)-3-methoxy-2-methylpropanoyl)-L-phenylalaninate 2,2,2-trifluoroacetate | 13% |  | 
20 | methyl (S)-2-((2R,3R)-3-((S)-1-((3R,4S,5S)-4-((S)-2-((((9H-fluoren-9-yl)methoxy)carbonyl)amino)-N,3-dimethylbutanamido)-3-methoxy-5-methylheptanoyl)pyrrolidin-2-yl)-3-methoxy-2-methylpropanamido)-3-phenylpropanoate |  |  | step yield (coupling step): 34%
21 | methyl (S)-2-((2R,3R)-3-((S)-1-((3R,4S,5S)-4-((S)-2-((S)-2-((3-aminobenzyl) (methyl)amino)-3-methylbutanamido)-N,3-dimethylbutanamido)-3-methoxy-5-methylheptanoyl)pyrrolidin-2-yl)-3-methoxy-2-methylpropanamido)-3-phenylpropanoate |  | 19% | final HPLC purity [1]: 91.1%
